From paper PMC11432245
No constants are given. Whether binding was seen depends on the method and setting. In cells and extracts the contact can be indirect. A yes stands for co-enrichment or nearness to the bait. Other partners may have been found.

Amino acid sequences for entries named in this document (tags omitted).
UniProt Q99496: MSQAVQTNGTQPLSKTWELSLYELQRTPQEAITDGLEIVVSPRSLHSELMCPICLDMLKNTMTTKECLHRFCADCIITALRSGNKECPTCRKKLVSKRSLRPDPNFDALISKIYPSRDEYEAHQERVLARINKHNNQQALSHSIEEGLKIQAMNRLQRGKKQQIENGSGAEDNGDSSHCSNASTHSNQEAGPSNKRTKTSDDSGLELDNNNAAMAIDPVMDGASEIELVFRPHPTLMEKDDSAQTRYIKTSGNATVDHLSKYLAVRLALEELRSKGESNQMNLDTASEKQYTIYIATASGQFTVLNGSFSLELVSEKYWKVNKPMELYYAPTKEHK
UniProt Q9BSM1: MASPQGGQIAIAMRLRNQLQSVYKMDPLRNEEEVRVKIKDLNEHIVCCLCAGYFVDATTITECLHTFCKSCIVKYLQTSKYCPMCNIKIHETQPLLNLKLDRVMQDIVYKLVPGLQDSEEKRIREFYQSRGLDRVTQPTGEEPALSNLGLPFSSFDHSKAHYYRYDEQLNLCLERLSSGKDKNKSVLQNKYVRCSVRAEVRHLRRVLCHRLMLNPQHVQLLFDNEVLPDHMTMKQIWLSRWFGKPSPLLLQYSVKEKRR
UniProt P35226: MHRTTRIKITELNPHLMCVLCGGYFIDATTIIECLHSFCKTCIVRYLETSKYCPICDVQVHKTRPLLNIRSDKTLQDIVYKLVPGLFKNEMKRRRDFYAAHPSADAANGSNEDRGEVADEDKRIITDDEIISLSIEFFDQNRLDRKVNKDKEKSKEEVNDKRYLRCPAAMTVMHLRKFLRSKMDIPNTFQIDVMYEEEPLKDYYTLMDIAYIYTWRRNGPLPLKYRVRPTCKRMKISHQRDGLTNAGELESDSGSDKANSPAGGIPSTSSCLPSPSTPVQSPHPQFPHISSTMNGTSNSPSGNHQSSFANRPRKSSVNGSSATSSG
UniProt A5YKK6: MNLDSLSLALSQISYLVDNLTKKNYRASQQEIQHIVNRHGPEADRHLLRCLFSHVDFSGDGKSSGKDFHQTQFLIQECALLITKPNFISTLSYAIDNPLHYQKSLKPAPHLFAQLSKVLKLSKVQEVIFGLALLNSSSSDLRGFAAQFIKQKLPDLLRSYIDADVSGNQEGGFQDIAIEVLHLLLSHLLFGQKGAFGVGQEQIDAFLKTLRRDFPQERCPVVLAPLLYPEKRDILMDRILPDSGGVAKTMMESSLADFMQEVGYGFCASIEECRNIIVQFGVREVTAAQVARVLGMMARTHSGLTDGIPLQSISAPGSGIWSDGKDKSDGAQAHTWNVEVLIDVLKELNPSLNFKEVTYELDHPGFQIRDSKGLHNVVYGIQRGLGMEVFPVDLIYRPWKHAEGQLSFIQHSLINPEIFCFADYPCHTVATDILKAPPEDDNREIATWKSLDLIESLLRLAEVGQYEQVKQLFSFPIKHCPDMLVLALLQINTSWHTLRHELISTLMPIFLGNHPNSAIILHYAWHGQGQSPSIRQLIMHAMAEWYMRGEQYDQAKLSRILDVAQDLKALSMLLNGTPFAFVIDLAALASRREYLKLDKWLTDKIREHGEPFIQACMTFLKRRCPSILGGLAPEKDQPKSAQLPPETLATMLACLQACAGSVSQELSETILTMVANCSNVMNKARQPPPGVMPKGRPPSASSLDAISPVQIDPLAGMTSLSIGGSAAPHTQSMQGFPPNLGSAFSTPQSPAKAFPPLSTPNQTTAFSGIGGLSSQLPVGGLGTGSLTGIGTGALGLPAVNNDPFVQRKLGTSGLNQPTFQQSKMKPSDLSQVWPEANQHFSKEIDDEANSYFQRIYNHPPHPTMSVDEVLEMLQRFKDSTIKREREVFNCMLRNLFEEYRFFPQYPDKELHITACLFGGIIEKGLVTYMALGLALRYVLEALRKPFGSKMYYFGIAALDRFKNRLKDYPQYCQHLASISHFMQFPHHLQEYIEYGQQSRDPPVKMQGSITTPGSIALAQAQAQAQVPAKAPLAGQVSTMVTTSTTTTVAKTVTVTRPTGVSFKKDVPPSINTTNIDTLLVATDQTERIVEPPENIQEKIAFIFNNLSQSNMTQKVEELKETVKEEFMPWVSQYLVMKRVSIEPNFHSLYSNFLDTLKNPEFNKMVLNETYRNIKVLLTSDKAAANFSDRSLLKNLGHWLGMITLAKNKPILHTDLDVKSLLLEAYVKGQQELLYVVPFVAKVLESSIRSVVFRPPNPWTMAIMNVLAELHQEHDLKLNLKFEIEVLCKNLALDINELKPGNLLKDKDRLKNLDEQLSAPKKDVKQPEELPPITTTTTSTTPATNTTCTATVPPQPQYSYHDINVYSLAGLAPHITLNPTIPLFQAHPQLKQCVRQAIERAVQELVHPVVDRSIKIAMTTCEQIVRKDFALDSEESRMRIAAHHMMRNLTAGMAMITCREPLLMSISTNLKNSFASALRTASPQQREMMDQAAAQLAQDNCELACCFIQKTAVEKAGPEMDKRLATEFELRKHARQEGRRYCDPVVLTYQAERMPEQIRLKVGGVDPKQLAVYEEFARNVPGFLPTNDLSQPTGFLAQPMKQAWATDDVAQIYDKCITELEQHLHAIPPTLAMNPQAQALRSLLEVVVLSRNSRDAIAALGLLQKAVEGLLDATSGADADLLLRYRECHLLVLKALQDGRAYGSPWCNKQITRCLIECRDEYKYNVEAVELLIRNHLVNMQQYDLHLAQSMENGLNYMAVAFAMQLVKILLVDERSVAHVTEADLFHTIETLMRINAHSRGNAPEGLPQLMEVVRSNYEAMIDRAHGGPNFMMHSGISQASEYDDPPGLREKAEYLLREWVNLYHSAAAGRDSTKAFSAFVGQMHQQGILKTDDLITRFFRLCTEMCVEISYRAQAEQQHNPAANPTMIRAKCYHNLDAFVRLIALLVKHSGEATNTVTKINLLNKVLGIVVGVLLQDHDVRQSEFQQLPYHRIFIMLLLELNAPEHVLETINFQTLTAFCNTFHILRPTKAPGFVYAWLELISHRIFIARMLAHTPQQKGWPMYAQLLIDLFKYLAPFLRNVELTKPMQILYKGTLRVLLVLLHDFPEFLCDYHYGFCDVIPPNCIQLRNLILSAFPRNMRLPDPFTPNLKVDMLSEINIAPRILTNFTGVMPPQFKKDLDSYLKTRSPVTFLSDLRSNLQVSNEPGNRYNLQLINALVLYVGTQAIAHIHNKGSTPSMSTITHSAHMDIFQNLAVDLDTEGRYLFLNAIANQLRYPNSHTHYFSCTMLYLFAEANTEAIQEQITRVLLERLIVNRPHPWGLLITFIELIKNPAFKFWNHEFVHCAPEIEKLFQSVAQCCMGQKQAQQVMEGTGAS
UniProt Q86SE9: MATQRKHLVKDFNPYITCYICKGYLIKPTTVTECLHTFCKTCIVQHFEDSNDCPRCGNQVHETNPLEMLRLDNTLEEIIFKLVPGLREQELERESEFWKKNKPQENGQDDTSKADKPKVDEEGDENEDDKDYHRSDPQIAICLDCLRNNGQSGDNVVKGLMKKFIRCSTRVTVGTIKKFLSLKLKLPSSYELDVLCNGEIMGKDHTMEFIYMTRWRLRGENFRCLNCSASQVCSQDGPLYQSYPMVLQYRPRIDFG

Columns and labels:
Assay in all cases: affinity purification with mass spectrometry; endogenous proteins; NT2 nuclear lysates immunoprecipitated with α-PCGF1, α-PCGF2, α-PCGF4/BMI1 or α-RNF2/RING1B, rabbit IgG as negative control; trypsin digestion on beads, label-free quantitation (MaxQuant), FDR 1%, ≥1.5-fold change
[1] = molecular target: RNF2/RING1B (human (endogenous in NT2)) (UniProt Q99496)
[2] = molecular target: T1, PCGF2 (human (endogenous in NT2)) (UniProt P35227)
T1 sequence: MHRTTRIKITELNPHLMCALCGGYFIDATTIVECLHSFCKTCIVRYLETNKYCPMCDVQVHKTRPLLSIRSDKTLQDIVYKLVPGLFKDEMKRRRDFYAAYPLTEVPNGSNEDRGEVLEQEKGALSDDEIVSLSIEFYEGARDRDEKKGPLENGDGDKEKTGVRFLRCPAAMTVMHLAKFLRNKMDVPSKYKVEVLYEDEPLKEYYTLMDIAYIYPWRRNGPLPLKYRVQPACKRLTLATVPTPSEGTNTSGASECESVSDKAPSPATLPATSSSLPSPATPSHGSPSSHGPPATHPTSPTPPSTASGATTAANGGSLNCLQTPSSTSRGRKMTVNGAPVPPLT

[3] = molecular target: PCGF1 (human (endogenous in NT2)) (UniProt Q9BSM1)
[4] = molecular target: PCGF4/BMI1 (human (endogenous in NT2)) (UniProt P35226)

Molecule | binding [1] | binding [2] | binding [3] | binding [4]
CNOT1 (from UniProt A5YKK6 1-2376) | binds | binds | binds | binds
PCGF5 (from UniProt Q86SE9 1-256) | binds | – | – | –
PCGF6 (protein, UniProt Q9BYE7 1-350) MEGVAVVTAGSVGAAKTEGAAALPPPPPVSPPALTPAPAAGEEGPAPLSETGAPGCSGSRPPELEPERSLGRFRGRFEDEDEELEEEEELEEEEEEEEEDMSHFSLRLEGGRQDSEDEEERLINLSELTPYILCSICKGYLIDATTITECLHTFCKSCIVRHFYYSNRCPKCNIVVHQTQPLYNIRLDRQLQDIVYKLVINLEEREKKQMHDFYKERGLEVPKPAVPQPVPSSKGRSKKVLESVFRIPPELDMSLLLEFIGANEGTGHFKPLEKKFVRVSGEATIGHVEKFLRRKMGLDPACQVDIICGDHLLEQYQTLREIRRAIGDAAMQDGLLVLHYGLVVSPLKIT | binds | – | – | –
CNOT4 (protein, UniProt O95628 1-575) MSRSPDAKEDPVECPLCMEPLEIDDINFFPCTCGYQICRFCWHRIRTDENGLCPACRKPYPEDPAVYKPLSQEELQRIKNEKKQKQNERKQKISENRKHLASVRVVQKNLVFVVGLSQRLADPEVLKRPEYFGKFGKIHKVVINNSTSYAGSQGPSASAYVTYIRSEDALRAIQCVNNVVVDGRTLKASLGTTKYCSYFLKNMQCPKPDCMYLHELGDEAASFTKEEMQAGKHQEYEQKLLQELYKLNPNFLQLSTGSVDKNKNKVTPLQRYDTPIDKPSDSLSIGNGDNSQQISNSDTPSPPPGLSKSNPVIPISSSNHSARSPFEGAVTESQSLFSDNFRHPNPIPSGLPPFPSSPQTSSDWPTAPEPQSLFTSETIPVSSSTDWQAAFGFGSSKQPEDDLGFDPFDVTRKALADLIEKELSVQDQPSLSPTSLQNSSSHTTTAKGPGSGFLHPAAATNANSLNSTFSVLPQRFPQFQQHRAVYNSFSFPGQAARYPWMAFPRNSIMHLNHTANPTSNSNFLDLNLPPQHNTGLGGIPVAGEEEVKVSTMPLSTSSHSLQQGQQPTSLHTTVA | binds | binds | binds | binds
PHC3 (protein, UniProt Q8NDX5 1-983) MDTEPNPGTSSVSTTTSSTTTTTITTSSSRMQQPQISVYSGSDRHAVQVIQQALHRPPSSAAQYLQQMYAAQQQHLMLHTAALQQQHLSSSQLQSLAAVQASLSSGRPSTSPTGSVTQQSSMSQTSINLSTSPTPAQLISRSQASSSTSGSITQQTMLLGSTSPTLTASQAQMYLRAQMLIFTPATTVAAVQSDIPVVSSSSSSSCQSAATQVQNLTLRSQKLGVLSSSQNGPPKSTSQTQSLTICHNKTTVTSSKISQRDPSPESNKKGESPSLESRSTAVTRTSSIHQLIAPASYSPIQPHSLIKHQQIPLHSPPSKVSHHQLILQQQQQQIQPITLQNSTQDPPPSQHCIPLQNHGLPPAPSNAQSQHCSPIQSHPSPLTVSPNQSQSAQQSVVVSPPPPHSPSQSPTIIIHPQALIQPHPLVSSALQPGPNLQQSTANQVQATAQLNLPSHLPLPASPVVHIGPVQQSALVSPGQQIVSPSHQQYSSLQSSPIPIASPPQMSTSPPAQIPPLPLQSMQSLQVQPEILSQGQVLVQNALVSEEELPAAEALVQLPFQTLPPPQTVAVNLQVQPPAPVDPPVVYQVEDVCEEEMPEESDECVRMDRTPPPPTLSPAAITVGRGEDLTSEHPLLEQVELPAVASVSASVIKSPSDPSHVSVPPPPLLLPAATTRSNSTSMHSSIPSIENKPPQAIVKPQILTHVIEGFVIQEGLEPFPVSRSSLLIEQPVKKRPLLDNQVINSVCVQPELQNNTKHADNSSDTEMEDMIAEETLEEMDSELLKCEFCGKMGYANEFLRSKRFCTMSCAKRYNVSCSKKFALSRWNRKPDNQSLGHRGRRPSGPDGAAREHILRQLPITYPSAEEDLASHEDSVPSAMTTRLRRQSERERERELRDVRIRKMPENSDLLPVAQTEPSIWTVDDVWAFIHSLPGCQDIADEFRAQEIDGQALLLLKEDHLMSAMNIKLGPALKICARINSLKES | – | binds | binds | binds
PCGF3 (protein, UniProt Q3KNV8 1-242) MLTRKIKLWDINAHITCRLCSGYLIDATTVTECLHTFCRSCLVKYLEENNTCPTCRIVIHQSHPLQYIGHDRTMQDIVYKLVPGLQEAEMRKQREFYHKLGMEVPGDIKGETCSAKQHLDSHRNGETKADDSSNKEAAEEKPEEDNDYHRSDEQVSICLECNSSKLRGLKRKWIRCSAQATVLHLKKFIAKKLNLSSFNELDILCNEEILGKDHTLKFVVVTRWRFKKAPLLLHYRPKMDLL | binds | – | – | –
